Measured values reported in patent US20230330134A1, “METHOD OF PROPHYLAXIS OF CORONAVIRUS AND/OR RESPIRATORY SYNCYTIAL VIRUS INFECTION” (Starpharma Pty Ltd., priority 2020, published 2023).

Assay: in vitro
Settings: African green monkey

For `CCC(CC)COC(=O)[C@H](C)N[P@](=O)(OC[C@H]1O[C@@](C#N)(c2ccc3c(N)ncnn23)[C@H](O)[C@@H]1O)Oc1ccccc1` [Remdesivir, reference compound], the CC50 was > 20 µM.
